Results published in the supplement of paper PMC5949888.
Most values lie at the floor of the assay. Slopes are relative: functional sequences can read slightly below zero.

System: Saccharomyces cerevisiae PS128 hsf1 delta, HSF1(1-493) fusion
Test: growth estimate (transactivation domain function in HSF1 fusion, heat-shock survival) (a.u. (slope of normalised read count over time)); higher = stronger growth at 37°C, i.e. more transactivation activity
Details: library: random library

Question: Which growth estimate does the source give for HEEAQHYLGRVTCTHLFSDT here?
Answer: < -0.25

Question: For PQAFDRGLLFP, which growth estimate is on record?
Answer: -0.245

Question: IELMRRLPVTVTL was tested. Which growth estimate did it give?
Answer: < -0.25

Question: How did the growth estimate turn out when VRP was run?
Answer: < -0.25

Question: TRAYVKGCGQGSQLHNGLSP was tested. Which growth estimate did it give?
Answer: < -0.25

Question: For GSGPPFFLSSLMERHLLCLQ, which growth estimate is on record?
Answer: -0.241

Question: With AFSREDASFDEVKGPG as the substance, how does the growth estimate read?
Answer: -0.246

Question: SRSPYTAMFSVRSF was tested. Which growth estimate did it give?
Answer: < -0.25

Question: How did the growth estimate turn out when RGTFASVGKSIMGSRDLKDR was run?
Answer: < -0.25

Question: AVMKIRGKLVFHPWGMHHRV was tested. Which growth estimate did it give?
Answer: < -0.25

Question: With VRESSGSRTYAYVTSLAINV as the substance, how does the growth estimate read?
Answer: < -0.25

Question: How did the growth estimate turn out when SVLTVRVGRQNGSLKGEAIH was run?
Answer: < -0.25

Question: With QAW as the substance, how does the growth estimate read?
Answer: < -0.25

Question: How did the growth estimate turn out when SISCQK was run?
Answer: < -0.25

Question: Which growth estimate does the source give for PAKG here?
Answer: < -0.25

Question: Which growth estimate does the source give for THCFRSK here?
Answer: < -0.25

Question: For PVSLTLRTRLRSNASVASIW, which growth estimate is on record?
Answer: < -0.25

Question: Which growth estimate does the source give for QGAGATQSR here?
Answer: < -0.25

Question: Which growth estimate does the source give for FTLLMSQSA here?
Answer: < -0.25

Question: Which growth estimate does the source give for PNRRRGYFAMVWIVNGHRLK here?
Answer: < -0.25

Question: With LYSQGARNVHKLALWVDSGI as the substance, how does the growth estimate read?
Answer: < -0.25

Question: SLITEVPLSLTYPIPDPSPP was tested. Which growth estimate did it give?
Answer: < -0.25

Question: How did the growth estimate turn out when RSYIMRFARRGKGTQRNSAS was run?
Answer: < -0.25

Question: How did the growth estimate turn out when VNQAWIMIIDIVNASGLLD was run?
Answer: < -0.25

Question: For SAA, which growth estimate is on record?
Answer: < -0.25

Question: For SWTLS, which growth estimate is on record?
Answer: < -0.25

Question: TGFCSL was tested. Which growth estimate did it give?
Answer: -0.145

Question: For PSGYRRMR, which growth estimate is on record?
Answer: < -0.25

Question: Which growth estimate does the source give for RACPLLRLKCAYRSVSRTLP here?
Answer: < -0.25

Question: How did the growth estimate turn out when VKSTPRRLLPAPPVSSKGFI was run?
Answer: < -0.25

Question: With IDHVLRRATHRIQPCNHHRS as the substance, how does the growth estimate read?
Answer: < -0.25

Question: For SGGSVLEVEKRRQAITV, which growth estimate is on record?
Answer: < -0.25

Question: For VWHDAFKLVSIGRQEP, which growth estimate is on record?
Answer: < -0.25

Question: With RIIGSLGSPI as the substance, how does the growth estimate read?
Answer: -0.248

Question: How did the growth estimate turn out when AGKDLEPAI was run?
Answer: < -0.25

Question: How did the growth estimate turn out when RTPNPFGYTGFKCMSTLRCS was run?
Answer: < -0.25

Question: How did the growth estimate turn out when ERLGLFV was run?
Answer: < -0.25

Question: With SCRHCWYAGFRSMN as the substance, how does the growth estimate read?
Answer: < -0.25

Question: GFLTRMEIAVSGWSDGAGAA was tested. Which growth estimate did it give?
Answer: < -0.25

Question: CRVAKLGFSPQTLRCSHATF was tested. Which growth estimate did it give?
Answer: < -0.25

Question: WSVVYDVGERDLGSPGSYSA was tested. Which growth estimate did it give?
Answer: < -0.25

Question: Which growth estimate does the source give for EFLHAIPELTEGRGTRKMLA here?
Answer: < -0.25

Question: RPVASSQLKF was tested. Which growth estimate did it give?
Answer: < -0.25

Question: Which growth estimate does the source give for TWAEA here?
Answer: < -0.25

Question: ARHMDHYRIRSALAI was tested. Which growth estimate did it give?
Answer: < -0.25

Question: Which growth estimate does the source give for RRRITSARSPLIAIPDGLSG here?
Answer: < -0.25

Question: Which growth estimate does the source give for AAGFGNPLVNGIDLDRELRA here?
Answer: < -0.25

Question: For CDPVSNRALTVVGLPVISNR, which growth estimate is on record?
Answer: < -0.25

Question: Which growth estimate does the source give for SPFFSTSLRCGRQRPTWTSI here?
Answer: < -0.25

Question: With RRRIFLGNSIRAPI as the substance, how does the growth estimate read?
Answer: < -0.25

Question: Which growth estimate does the source give for GNTPGLAV here?
Answer: < -0.25

Question: How did the growth estimate turn out when DVASRATVLCIGRFC was run?
Answer: < -0.25

Question: Which growth estimate does the source give for RMYASRDLTKRALRCQFGTC here?
Answer: < -0.25

Question: For VTQSWGASKEFTEGAVCGP, which growth estimate is on record?
Answer: < -0.25

Question: For IIWA, which growth estimate is on record?
Answer: < -0.25

Question: For AACKQGLGIEFDGLFPM, which growth estimate is on record?
Answer: < -0.25

Question: Which growth estimate does the source give for WLRLSRRATCML here?
Answer: < -0.25

Question: For ILFRWF, which growth estimate is on record?
Answer: < -0.25

Question: For SDFSKSA, which growth estimate is on record?
Answer: < -0.25

Question: For FDINRSLDGFFRAANSHFRD, which growth estimate is on record?
Answer: -0.124

Question: HGSKIFKSCTYRTHVRPGLP was tested. Which growth estimate did it give?
Answer: < -0.25

Question: With GQERFTTYQFPNHLLARPLA as the substance, how does the growth estimate read?
Answer: < -0.25

Question: How did the growth estimate turn out when PVGDE was run?
Answer: < -0.25

Question: With WCTLRLRFEVSVRTLACQGC as the substance, how does the growth estimate read?
Answer: < -0.25

Question: How did the growth estimate turn out when ENPPKWLTIKTAMQSGVLWG was run?
Answer: < -0.25

Question: SPGGHDTLRHLNWPRCGSIG was tested. Which growth estimate did it give?
Answer: < -0.25

Question: Which growth estimate does the source give for WLRPLTSTIVSLYLRAGRYP here?
Answer: < -0.25

Question: With DLRCGS as the substance, how does the growth estimate read?
Answer: < -0.25

Question: TQQRVVHYEG was tested. Which growth estimate did it give?
Answer: < -0.25

Question: Which growth estimate does the source give for RQHAAGGDIVTRLKSH here?
Answer: < -0.25

Question: For LSICTRGCLDSWSAPAKKES, which growth estimate is on record?
Answer: -0.243

Question: With AAGYYIPGLLCRVPHGEHFP as the substance, how does the growth estimate read?
Answer: < -0.25

Question: For NLENSFSGDPGSSRRVSSPC, which growth estimate is on record?
Answer: < -0.25

Question: With FRLLIAWFVSCWARRIVI as the substance, how does the growth estimate read?
Answer: < -0.25

Question: For ISHMRKTTTMYTYISSSM, which growth estimate is on record?
Answer: < -0.25

Question: Which growth estimate does the source give for LDLRLESLRLLSRM here?
Answer: < -0.25

Question: How did the growth estimate turn out when NLPSGGLKWRIIGRICCKGG was run?
Answer: -0.246

Question: With NSRKLCRTCLATPSTSAPCC as the substance, how does the growth estimate read?
Answer: < -0.25

Question: For YNSPSIPQVRVGARILRS, which growth estimate is on record?
Answer: < -0.25

Question: MPRSLFVPVHGGKELATRLP was tested. Which growth estimate did it give?
Answer: < -0.25

Question: For LISARRIHNRL, which growth estimate is on record?
Answer: < -0.25

Question: With GLQGTERNGNCVGDIPGGTS as the substance, how does the growth estimate read?
Answer: < -0.25

Question: MPRDGCLT was tested. Which growth estimate did it give?
Answer: -0.246

Question: Which growth estimate does the source give for LGLGSGLEG here?
Answer: < -0.25

Question: Which growth estimate does the source give for KDRVCVVVCRSEEAF here?
Answer: < -0.25

Question: Which growth estimate does the source give for KWTSTHT here?
Answer: < -0.25

Question: For WAVHRVQWVGRSNKELFAC, which growth estimate is on record?
Answer: < -0.25

Question: With TKRLGLRAFRATAYHMYVGL as the substance, how does the growth estimate read?
Answer: < -0.25

Question: For QEASTGRMSEQIQCGAPSYF, which growth estimate is on record?
Answer: < -0.25

Question: Which growth estimate does the source give for NQITLPELLFLRLKYPRDLP here?
Answer: < -0.25

Question: How did the growth estimate turn out when RELRFPTGYRERRHRSL was run?
Answer: < -0.25

Question: How did the growth estimate turn out when PVIWELRQTG was run?
Answer: -0.245

Question: With VMSESAVISSTVKVIRL as the substance, how does the growth estimate read?
Answer: < -0.25

Question: With KSRAGRMVRCVPVCDTGARS as the substance, how does the growth estimate read?
Answer: < -0.25

Question: How did the growth estimate turn out when VDMQFCEVASCTVPRFMESI was run?
Answer: < -0.25

Question: With GTIEVKSQRRI as the substance, how does the growth estimate read?
Answer: < -0.25

Question: With CFSNGNLAP as the substance, how does the growth estimate read?
Answer: < -0.25

Question: Which growth estimate does the source give for SWK here?
Answer: < -0.25
